Drawing on paper PMC5510181, this text covers binding for 6 molecules.

Assay [1] addresses T1, SKAP1 (src kinase-associated phosphoprotein 1), endogenous in human T cells (human (endogenous in Jurkat and in human primary T cells)) (UniProt Q86WV1).
T1 sequence: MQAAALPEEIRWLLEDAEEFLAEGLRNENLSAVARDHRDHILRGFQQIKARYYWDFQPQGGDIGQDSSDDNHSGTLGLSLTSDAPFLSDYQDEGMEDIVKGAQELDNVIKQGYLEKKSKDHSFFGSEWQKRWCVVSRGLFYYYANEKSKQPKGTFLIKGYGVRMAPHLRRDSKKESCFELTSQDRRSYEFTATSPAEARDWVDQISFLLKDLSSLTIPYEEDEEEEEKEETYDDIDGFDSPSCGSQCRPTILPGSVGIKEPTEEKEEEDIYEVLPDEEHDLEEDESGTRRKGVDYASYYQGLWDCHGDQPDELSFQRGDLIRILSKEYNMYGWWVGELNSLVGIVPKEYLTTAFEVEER
The assay is described as follows: co-IP; membrane fraction of human peripheral primary T cells ligated with plate-bound ICAM1-Fc (2 μg/ml) or ICAM1-Fc plus soluble anti-CD3 (1 μg/ml) for 5-20 min; anti-SKAP1 precipitation, blotting.

Assay [2] concerns the target T1, SKAP1 (src kinase-associated phosphoprotein 1), endogenous in human T cells (human (endogenous in Jurkat and in human primary T cells)). The assay is described as follows: co-IP; detergent lysates of Jurkat T cells ligated with anti-CD3 and/or anti-LFA-1 (5-10 min; some lysates first serially depleted with anti-SKAP1, anti-SLP-76 or anti-PLCγ1; with or without the inhibitor PF573228); precipitation with anti-SKAP1, anti-SLP-76, anti-PLCγ1 or anti-LFA-1, blotting.

Another assay concerns the target T2, Flag-tagged SKAP1 (UniProt Q86WV1).
T2 sequence: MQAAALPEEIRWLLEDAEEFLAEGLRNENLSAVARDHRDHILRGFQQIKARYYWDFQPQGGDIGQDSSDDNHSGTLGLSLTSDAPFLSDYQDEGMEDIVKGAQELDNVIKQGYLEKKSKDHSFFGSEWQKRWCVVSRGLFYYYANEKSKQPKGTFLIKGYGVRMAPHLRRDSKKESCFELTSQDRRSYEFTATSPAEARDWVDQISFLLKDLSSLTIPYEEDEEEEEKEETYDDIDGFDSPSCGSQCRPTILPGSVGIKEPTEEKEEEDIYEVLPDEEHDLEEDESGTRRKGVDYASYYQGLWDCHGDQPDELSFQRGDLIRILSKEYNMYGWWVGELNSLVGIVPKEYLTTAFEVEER
The assay is described as follows: co-IP; 293T cells co-transfected with Flag-SKAP1 and the partner; precipitation with anti-Flag (legend; anti-SKAP1 in the text), blotting with anti-GFP or anti-Flag.

The target in a further assay is T3, GST-SKAP1 wild-type (UniProt Q86WV1).
T3 sequence: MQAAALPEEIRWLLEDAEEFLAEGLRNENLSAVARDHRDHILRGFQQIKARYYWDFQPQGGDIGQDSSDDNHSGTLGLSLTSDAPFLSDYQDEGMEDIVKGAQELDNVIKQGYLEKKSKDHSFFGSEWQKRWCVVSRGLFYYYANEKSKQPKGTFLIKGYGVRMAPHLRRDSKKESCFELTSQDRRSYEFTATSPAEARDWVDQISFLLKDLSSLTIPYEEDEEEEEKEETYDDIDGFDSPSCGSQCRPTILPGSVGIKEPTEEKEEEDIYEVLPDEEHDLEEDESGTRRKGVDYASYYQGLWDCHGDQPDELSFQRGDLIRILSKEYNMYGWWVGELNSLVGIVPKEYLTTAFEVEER
Kind of assay: pull-down; GST fusion proteins from E. coli incubated with lysates of Jurkat cells ligated with anti-LFA-1 for 5 min; blotting with anti-PLCγ1, anti-LAT, anti-GRB-2, anti-ADAP, anti-SLP-76 and anti-GST; only the target purified.

Assay [3] concerns the target T4, SKAP1 (src kinase-associated phosphoprotein 1), endogenous in murine DC27.10 T cells (mouse (endogenous in DC27.10)) (UniProt Q3UUV5).
T4 sequence: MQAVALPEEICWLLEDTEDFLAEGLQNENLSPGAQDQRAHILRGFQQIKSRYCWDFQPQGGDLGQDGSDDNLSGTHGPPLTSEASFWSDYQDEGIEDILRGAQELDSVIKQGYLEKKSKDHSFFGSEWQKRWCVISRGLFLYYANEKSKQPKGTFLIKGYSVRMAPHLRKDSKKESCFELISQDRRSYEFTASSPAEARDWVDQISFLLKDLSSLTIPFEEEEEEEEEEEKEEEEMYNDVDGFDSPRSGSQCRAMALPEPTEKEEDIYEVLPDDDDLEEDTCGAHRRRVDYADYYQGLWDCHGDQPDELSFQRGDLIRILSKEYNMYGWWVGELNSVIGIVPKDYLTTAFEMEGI
Kind of assay: co-IP; membrane fraction of DC27.10 mouse T cells ligated with anti-CD3 and/or anti-LFA-1 (5 min; titration of anti-LFA-1) or plate-bound ICAM1-Fc (2 μg/ml); precipitation with anti-SKAP1 or anti-LAT, protein G-Sepharose, 4 °C, blotting.

Results are given in words; binding and its absence hold for the method and conditions named. Binding seen in cells or lysates may run through a third protein. For some of these results: Sequences can lack the tags named with a protein.

B1: GADS (GRB2-related adaptor downstream of Shc), endogenous in human T cells (protein, UniProt O75791 1-330)
chain: MEAVAKFDFTASGEDELSFHTGDVLKILSNQEEWFKAELGSQEGYVPKNFIDIQFPKWFHEGLSRHQAENLLMGKEVGFFIIRASQSSPGDFSISVRHEDDVQHFKVMRDNKGNYFLWTEKFPSLNKLVDYYRTNSISRQKQIFLRDRTREDQGHRGNSLDRRSQGGPHLSGAVGEEIRPSMNRKLSDHPPTLPLQQHQHQPQPPQYAPAPQQLQQPPQQRYLQHHHFHQERRGGSLDINDGHCGTGLGSEMNAALMHRRHTDPVQLQAAGRVRWARALYDFEALEDDELGFHSGEVVEVLDSSNPSWWTGRLHNKLGLFPANYVAPMTR
For B1, the binding result in assay [1] and in assay [2] was “no binding” in each case.

B2: GADS tested with Flag-tagged SKAP1 (Supplementary Fig. 1a) (protein, UniProt O75791 1-330)
chain: MEAVAKFDFTASGEDELSFHTGDVLKILSNQEEWFKAELGSQEGYVPKNFIDIQFPKWFHEGLSRHQAENLLMGKEVGFFIIRASQSSPGDFSISVRHEDDVQHFKVMRDNKGNYFLWTEKFPSLNKLVDYYRTNSISRQKQIFLRDRTREDQGHRGNSLDRRSQGGPHLSGAVGEEIRPSMNRKLSDHPPTLPLQQHQHQPQPPQYAPAPQQLQQPPQQRYLQHHHFHQERRGGSLDINDGHCGTGLGSEMNAALMHRRHTDPVQLQAAGRVRWARALYDFEALEDDELGFHSGEVVEVLDSSNPSWWTGRLHNKLGLFPANYVAPMTR
Regarding B2, the binding result with Flag-tagged SKAP1 is recorded as “no binding”.

B3: PLCγ1 tested with Flag-tagged SKAP1 (Supplementary Fig. 1a) (enzyme, UniProt P19174 1-1290)
chain: MAGAASPCANGCGPGAPSDAEVLHLCRSLEVGTVMTLFYSKKSQRPERKTFQVKLETRQITWSRGADKIEGAIDIREIKEIRPGKTSRDFDRYQEDPAFRPDQSHCFVILYGMEFRLKTLSLQATSEDEVNMWIKGLTWLMEDTLQAPTPLQIERWLRKQFYSVDRNREDRISAKDLKNMLSQVNYRVPNMRFLRERLTDLEQRSGDITYGQFAQLYRSLMYSAQKTMDLPFLEASTLRAGERPELCRVSLPEFQQFLLDYQGELWAVDRLQVQEFMLSFLRDPLREIEEPYFFLDEFVTFLFSKENSVWNSQLDAVCPDTMNNPLSHYWISSSHNTYLTGDQFSSESSLEAYARCLRMGCRCIELDCWDGPDGMPVIYHGHTLTTKIKFSDVLHTIKEHAFVASEYPVILSIEDHCSIAQQRNMAQYFKKVLGDTLLTKPVEISADGLPSPNQLKRKILIKHKKLAEGSAYEEVPTSMMYSENDISNSIKNGILYLEDPVNHEWYPHYFVLTSSKIYYSEETSSDQGNEDEEEPKEVSSSTELHSNEKWFHGKLGAGRDGRHIAERLLTEYCIETGAPDGSFLVRESETFVGDYTLSFWRNGKVQHCRIHSRQDAGTPKFFLTDNLVFDSLYDLITHYQQVPLRCNEFEMRLSEPVPQTNAHESKEWYHASLTRAQAEHMLMRVPRDGAFLVRKRNEPNSYAISFRAEGKIKHCRVQQEGQTVMLGNSEFDSLVDLISYYEKHPLYRKMKLRYPINEEALEKIGTAEPDYGALYEGRNPGFYVEANPMPTFKCAVKALFDYKAQREDELTFIKSAIIQNVEKQEGGWWRGDYGGKKQLWFPSNYVEEMVNPVALEPEREHLDENSPLGDLLRGVLDVPACQIAIRPEGKNNRLFVFSISMASVAHWSLDVAADSQEELQDWVKKIREVAQTADARLTEGKIMERRKKIALELSELVVYCRPVPFDEEKIGTERACYRDMSSFPETKAEKYVNKAKGKKFLQYNRLQLSRIYPKGQRLDSSNYDPLPMWICGSQLVALNFQTPDKPMQMNQALFMTGRHCGYVLQPSTMRDEAFDPFDKSSLRGLEPCAISIEVLGARHLPKNGRGIVCPFVEIEVAGAEYDSTKQKTEFVVDNGLNPVWPAKPFHFQISNPEFAFLRFVVYEEDMFSDQNFLAQATFPVKGLKTGYRAVPLKNNYSEDLELASLLIKIDIFPAKENGDLSPFSGTSLRERGSDASGQLFHGRAREGSFESRYQQPFEDFRISQEHLADHFDSRERRAPRRTRVNGDNRL
For the molecule B3, in the assay with Flag-tagged SKAP1, the binding entry is given as “no binding”.

B4: phospholipase Cγ1 (PLCγ1), endogenous in Jurkat T cells (enzyme, UniProt P19174 1-1290)
chain: MAGAASPCANGCGPGAPSDAEVLHLCRSLEVGTVMTLFYSKKSQRPERKTFQVKLETRQITWSRGADKIEGAIDIREIKEIRPGKTSRDFDRYQEDPAFRPDQSHCFVILYGMEFRLKTLSLQATSEDEVNMWIKGLTWLMEDTLQAPTPLQIERWLRKQFYSVDRNREDRISAKDLKNMLSQVNYRVPNMRFLRERLTDLEQRSGDITYGQFAQLYRSLMYSAQKTMDLPFLEASTLRAGERPELCRVSLPEFQQFLLDYQGELWAVDRLQVQEFMLSFLRDPLREIEEPYFFLDEFVTFLFSKENSVWNSQLDAVCPDTMNNPLSHYWISSSHNTYLTGDQFSSESSLEAYARCLRMGCRCIELDCWDGPDGMPVIYHGHTLTTKIKFSDVLHTIKEHAFVASEYPVILSIEDHCSIAQQRNMAQYFKKVLGDTLLTKPVEISADGLPSPNQLKRKILIKHKKLAEGSAYEEVPTSMMYSENDISNSIKNGILYLEDPVNHEWYPHYFVLTSSKIYYSEETSSDQGNEDEEEPKEVSSSTELHSNEKWFHGKLGAGRDGRHIAERLLTEYCIETGAPDGSFLVRESETFVGDYTLSFWRNGKVQHCRIHSRQDAGTPKFFLTDNLVFDSLYDLITHYQQVPLRCNEFEMRLSEPVPQTNAHESKEWYHASLTRAQAEHMLMRVPRDGAFLVRKRNEPNSYAISFRAEGKIKHCRVQQEGQTVMLGNSEFDSLVDLISYYEKHPLYRKMKLRYPINEEALEKIGTAEPDYGALYEGRNPGFYVEANPMPTFKCAVKALFDYKAQREDELTFIKSAIIQNVEKQEGGWWRGDYGGKKQLWFPSNYVEEMVNPVALEPEREHLDENSPLGDLLRGVLDVPACQIAIRPEGKNNRLFVFSISMASVAHWSLDVAADSQEELQDWVKKIREVAQTADARLTEGKIMERRKKIALELSELVVYCRPVPFDEEKIGTERACYRDMSSFPETKAEKYVNKAKGKKFLQYNRLQLSRIYPKGQRLDSSNYDPLPMWICGSQLVALNFQTPDKPMQMNQALFMTGRHCGYVLQPSTMRDEAFDPFDKSSLRGLEPCAISIEVLGARHLPKNGRGIVCPFVEIEVAGAEYDSTKQKTEFVVDNGLNPVWPAKPFHFQISNPEFAFLRFVVYEEDMFSDQNFLAQATFPVKGLKTGYRAVPLKNNYSEDLELASLLIKIDIFPAKENGDLSPFSGTSLRERGSDASGQLFHGRAREGSFESRYQQPFEDFRISQEHLADHFDSRERRAPRRTRVNGDNRL
Regarding B4, in the assay with GST-SKAP1 wild-type, the binding entry is listed as “no binding”.

B5: SLP-76 (SH2 domain containing leukocyte protein of 76kDa), endogenous in murine DC27.10 T cells (protein, UniProt Q60787 1-533)
chain: MALKNVPFRSEVLAWNSDNLADYFRKLNYRDCEKAVKKYHIDGARFLNLTENDIQKFPKLRMPLLSKLSQDINKNEERRSIFTRKPQIPRFLEETESHEEDDGGWSSFEDDYESPNDDDPDGEDDGDYESPNEEEQALVDDAADYEPPPSNNEEALQSSILPPNSFHNTNSMYIDRPPTGKVSQQPPVPPLRPKPALPPLPTGRNHSPLSPPHPNHEEPSRSGNNKTAKLPAPSIDRSTKPPLDRSLAPLDREPFILGKKPPFSDKPSAPLGREHLPKIQKPPLPPAMDRHERNERLGPVTTRKPPVPRHGRGPDRRENDEDDVHQRPLPQPSLPSMSSNTFPSRSVQPSSKNTFPLAHMPGAFSESNIGFQQSASLPPYFSQGPGNRPPLRSEGRNLPLPVPNRPQPPSPGEEETPLDEEWYVSYITRPEAEAALRKINQDGTFLVRDSSKKTANNPYVLMVLYKDKVYNIQIRYQEESQVYLLGTGLRGKEDFLSVSDIIDYFRKMPLLLIDGKNRGSRYQCTLTHAAGCL
On to B5, for which, in assay [3], the binding result is recorded as “no binding”.

B6: GADS (GRB2-related adaptor downstream of Shc), endogenous in murine DC27.10 T cells (protein, UniProt O89100 1-322)
chain: MEATAKFDFMASGEDELSFRTGDILKILSNQEEWLKAELGSQEGYVPKNFIDIEFPEWFHEGLSRHQAENLLMGKDIGFFIIRASQSSPGDFSISVRHEDDVQHFKVMRDTKGNYFLWTEKFPSLNKLVDYYRTTSISKQKQVFLRDGTQDQGHRGNSLDRRSQGGPHPSGTVGEEIRPSVNRKLSDHLPLGPQQFHPHQQPSPQFTPGPQPPQQQRYLQHFHQDRRGGSLDINDGHCGLGSEVNATLMHRRHTDPVQLQAAGRVRWARALYDFEALEEDELGFRSGEVVEVLDSSNPSWWTGRLHNKLGLFPANYVAPMMR
B6: the binding result in assay [3] was “no binding”.
